From article PMC5595929 come the findings set out here.

Sequences of proteins named here, by UniProt entry; tags and fusion partners are left off. A change or cut given only in a name is not applied to a line headed by its entry.
UniProt P21860: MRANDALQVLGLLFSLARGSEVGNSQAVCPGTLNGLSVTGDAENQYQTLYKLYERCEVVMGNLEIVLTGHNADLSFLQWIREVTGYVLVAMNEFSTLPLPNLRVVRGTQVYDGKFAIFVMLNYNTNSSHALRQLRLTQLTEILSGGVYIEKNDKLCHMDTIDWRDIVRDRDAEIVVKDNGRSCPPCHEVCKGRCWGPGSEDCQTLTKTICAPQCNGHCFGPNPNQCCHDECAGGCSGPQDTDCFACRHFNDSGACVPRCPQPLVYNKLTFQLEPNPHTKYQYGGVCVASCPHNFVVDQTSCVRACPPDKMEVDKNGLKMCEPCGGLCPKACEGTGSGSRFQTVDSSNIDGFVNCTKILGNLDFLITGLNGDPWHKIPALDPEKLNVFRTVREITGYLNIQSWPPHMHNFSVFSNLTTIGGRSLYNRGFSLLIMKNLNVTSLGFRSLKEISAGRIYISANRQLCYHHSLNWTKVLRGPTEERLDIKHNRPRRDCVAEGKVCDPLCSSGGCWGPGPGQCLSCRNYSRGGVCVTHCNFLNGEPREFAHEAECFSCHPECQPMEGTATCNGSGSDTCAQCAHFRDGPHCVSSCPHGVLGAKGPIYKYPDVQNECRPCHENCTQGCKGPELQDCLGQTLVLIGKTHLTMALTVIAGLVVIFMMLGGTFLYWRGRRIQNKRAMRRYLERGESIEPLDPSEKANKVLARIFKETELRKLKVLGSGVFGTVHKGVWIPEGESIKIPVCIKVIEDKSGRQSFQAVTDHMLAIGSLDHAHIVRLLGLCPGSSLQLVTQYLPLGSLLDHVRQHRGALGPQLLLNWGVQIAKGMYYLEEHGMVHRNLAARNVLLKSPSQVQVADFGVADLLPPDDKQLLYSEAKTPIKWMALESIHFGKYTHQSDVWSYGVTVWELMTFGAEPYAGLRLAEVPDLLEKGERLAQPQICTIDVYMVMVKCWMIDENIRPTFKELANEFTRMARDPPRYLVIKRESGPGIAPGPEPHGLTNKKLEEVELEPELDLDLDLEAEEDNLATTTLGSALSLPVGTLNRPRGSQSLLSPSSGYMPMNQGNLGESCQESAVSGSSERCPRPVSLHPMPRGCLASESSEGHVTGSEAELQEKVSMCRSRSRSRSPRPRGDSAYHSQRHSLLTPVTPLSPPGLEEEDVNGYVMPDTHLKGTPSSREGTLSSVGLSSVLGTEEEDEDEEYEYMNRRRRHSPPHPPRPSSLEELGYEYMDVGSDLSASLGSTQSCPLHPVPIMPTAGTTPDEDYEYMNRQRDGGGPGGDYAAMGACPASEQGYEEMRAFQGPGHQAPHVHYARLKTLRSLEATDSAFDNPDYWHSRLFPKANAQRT

Results are given in words; binding and its absence hold for the method and conditions named. In cells and extracts the contact can be indirect. Some entries that bind do so weakly or less than the wild type. Sequences can lack the tags named with a protein.

Test [1] deals with T1, FLAG-tagged Necl-4 (nectin-like molecule-4/cell adhesion molecule 4) (UniProt Q8NFZ8).
T1 sequence: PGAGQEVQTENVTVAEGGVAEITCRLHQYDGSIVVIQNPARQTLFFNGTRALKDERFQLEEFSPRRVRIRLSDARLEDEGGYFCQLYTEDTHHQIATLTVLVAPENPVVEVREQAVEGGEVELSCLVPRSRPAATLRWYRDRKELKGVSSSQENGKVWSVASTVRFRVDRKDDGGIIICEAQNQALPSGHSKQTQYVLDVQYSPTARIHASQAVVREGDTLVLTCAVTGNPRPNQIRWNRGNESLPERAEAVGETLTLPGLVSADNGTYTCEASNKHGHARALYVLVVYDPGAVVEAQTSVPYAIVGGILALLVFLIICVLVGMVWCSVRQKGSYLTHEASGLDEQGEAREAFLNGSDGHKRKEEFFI
Nature of the test: co-IP; HEK293E cells co-transfected; FLAG-Necl-4 constructs precipitated with the anti-FLAG mAb, ErbB3-GFP constructs detected by blot; cells starved of serum and cultured with or without HRG (Fig. 2a), cultured in suspension (Fig. 5a); lysis buffer 20 mM Tris-HCl pH 7.5, 1% Nonidet P-40, 150 mM NaCl; beads 4 °C, 2 h.

For test [2], the target named is T2, FLAG-Necl-4-Ig3-TM, the third Ig-like domain of Necl-4 with transmembrane region (UniProt Q8NFZ8).
T2 sequence: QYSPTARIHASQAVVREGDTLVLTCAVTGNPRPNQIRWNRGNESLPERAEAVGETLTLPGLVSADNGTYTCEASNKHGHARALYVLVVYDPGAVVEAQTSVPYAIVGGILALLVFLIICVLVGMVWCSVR
The description is as above.

Test [3] addresses ErbB3 mutant in which the cytoplasmic region and the domains 1, 2, and 3 were deleted (GFP-tagged) (human) (UniProt P21860). Nature of the test: co-IP; reciprocal: HEK293E cells co-transfected; ErbB3-GFP and its mutants precipitated with the anti-GFP pAb, FLAG-Necl-4 detected by blot (Fig. 5b cells in suspension; Fig. 2c).
In another test the target is GFP-tagged ErbB3 (human) (UniProt P21860). The description is as above.
The target of test [4] is ErbB3 mutant in which the cytoplasmic region and the domain 1 were deleted (GFP-tagged) (human) (UniProt P21860). The description is as above.
The target in test [5] is ErbB3 mutant in which the cytoplasmic region and the domains 1 and 2 were deleted (GFP-tagged) (human) (UniProt P21860). The test is described as above.

With “ErbB3 mutant in which the cytoplasmic region and the domain 1 were deleted (GFP-tagged) (from UniProt P21860 184-708) (domain or fragment)”, the binding result in test [1] was “binds”. “ErbB3 mutant in which the cytoplasmic region and the domains 1, 2, and 3 were deleted (GFP-tagged) (from UniProt P21860 472-708) (domain or fragment)”: in test [1], the binding result is reported as “binds weakly”.

As for “ErbB3 mutant in which the cytoplasmic region and the domains 1 and 2 were deleted (GFP-tagged) (from UniProt P21860 328-708) (domain or fragment)”, the binding result in test [1] is given as “binds”. “GFP-tagged ErbB3 (from UniProt P21860 20-1342) (receptor)”: the binding result in test [1] and in test [2] was “binds” throughout.

B1: FLAG-tagged Necl-4 (nectin-like molecule-4/cell adhesion molecule 4) (protein, UniProt Q8NFZ8 21-388)
chain: T1 sequence
Consider B1, for which the binding result in test [3] is “binds weakly”; with GFP-tagged ErbB3 (human) it was “binds”; in test [4], “binds”; in test [5], “binds”.
